This is one part of the list.
Tests used:
Experiment in all cases: log2 fold change, soluble protein after heating vs DMSO (PISA); higher = thermal stabilisation; K562 lysate, 10 uM; active = over 0.2 and 3.5 SD of the protein, either way, in both replicates (recomputed)
[1] = compound: CCCS(=O)(=O)Nc1ccc(F)c(C(=O)c2c[nH]c3ncc(-c4ccc(Cl)cc4)cc23)c1F [vemurafenib]
In short: (§1)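 Quantification was by TMTpro 16plex LC-MS/MS with equalised channel sums, applied to the supernatant after 21,000xg for 90 min. Samples were crude K562 extract at 1 mg/mL protein in PBS pH 7.4 with 1 mM MgCl2, treated with 10 μM compound for 30 min, heated for 3 min across 48°C-58°C, pooled and brought to 0.5% NP-40 at 4°C. Values are log-two fold changes in thermal stability relative to solvent controls, from duplicates.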

Protein sequences, listed by entry. Tags and fused reporters are not part of them. Lines headed by an entry give the natural chain unless they say otherwise; changes in a name come on top.
UniProt Q15007: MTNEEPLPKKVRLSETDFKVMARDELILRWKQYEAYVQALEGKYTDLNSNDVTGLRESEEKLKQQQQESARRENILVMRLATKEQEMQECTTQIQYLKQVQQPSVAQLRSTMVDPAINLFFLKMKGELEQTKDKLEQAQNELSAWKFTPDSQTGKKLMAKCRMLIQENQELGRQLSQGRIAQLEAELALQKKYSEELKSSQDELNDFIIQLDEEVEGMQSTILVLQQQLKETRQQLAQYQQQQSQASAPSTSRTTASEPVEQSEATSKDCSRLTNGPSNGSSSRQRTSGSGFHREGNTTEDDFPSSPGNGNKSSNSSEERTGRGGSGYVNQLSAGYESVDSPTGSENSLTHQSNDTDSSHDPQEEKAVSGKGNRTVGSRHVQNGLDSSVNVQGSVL
UniProt Q9BZH6: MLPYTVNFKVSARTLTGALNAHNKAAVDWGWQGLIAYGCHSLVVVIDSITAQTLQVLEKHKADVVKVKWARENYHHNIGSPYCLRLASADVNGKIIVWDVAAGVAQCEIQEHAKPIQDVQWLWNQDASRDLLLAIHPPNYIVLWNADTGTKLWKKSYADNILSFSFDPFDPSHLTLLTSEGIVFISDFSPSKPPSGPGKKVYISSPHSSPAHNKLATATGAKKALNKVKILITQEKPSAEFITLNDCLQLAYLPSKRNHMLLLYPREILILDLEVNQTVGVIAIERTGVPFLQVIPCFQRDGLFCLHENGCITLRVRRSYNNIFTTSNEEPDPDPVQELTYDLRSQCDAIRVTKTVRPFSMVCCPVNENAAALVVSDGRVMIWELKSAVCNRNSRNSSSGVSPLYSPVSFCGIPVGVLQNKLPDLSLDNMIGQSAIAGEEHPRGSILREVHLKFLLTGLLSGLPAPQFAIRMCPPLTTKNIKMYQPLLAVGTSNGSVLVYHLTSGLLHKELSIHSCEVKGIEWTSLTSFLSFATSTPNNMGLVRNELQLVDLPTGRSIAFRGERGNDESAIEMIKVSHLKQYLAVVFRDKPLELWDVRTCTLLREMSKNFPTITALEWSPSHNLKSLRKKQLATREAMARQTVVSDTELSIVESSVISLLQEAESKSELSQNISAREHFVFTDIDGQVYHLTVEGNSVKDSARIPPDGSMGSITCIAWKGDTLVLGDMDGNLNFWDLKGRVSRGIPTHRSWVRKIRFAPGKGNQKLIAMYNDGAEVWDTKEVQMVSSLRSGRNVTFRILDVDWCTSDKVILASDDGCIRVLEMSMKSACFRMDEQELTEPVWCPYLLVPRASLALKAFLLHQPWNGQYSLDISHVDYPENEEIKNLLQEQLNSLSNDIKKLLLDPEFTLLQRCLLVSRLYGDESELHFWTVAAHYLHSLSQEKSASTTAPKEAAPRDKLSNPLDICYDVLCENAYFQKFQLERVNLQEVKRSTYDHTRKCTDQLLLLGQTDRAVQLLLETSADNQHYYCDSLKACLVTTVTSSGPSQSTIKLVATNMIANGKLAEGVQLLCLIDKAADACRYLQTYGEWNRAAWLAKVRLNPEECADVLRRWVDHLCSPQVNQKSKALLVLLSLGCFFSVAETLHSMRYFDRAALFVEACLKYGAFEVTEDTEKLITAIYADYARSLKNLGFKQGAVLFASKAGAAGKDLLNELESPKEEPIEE
UniProt A6NGB9: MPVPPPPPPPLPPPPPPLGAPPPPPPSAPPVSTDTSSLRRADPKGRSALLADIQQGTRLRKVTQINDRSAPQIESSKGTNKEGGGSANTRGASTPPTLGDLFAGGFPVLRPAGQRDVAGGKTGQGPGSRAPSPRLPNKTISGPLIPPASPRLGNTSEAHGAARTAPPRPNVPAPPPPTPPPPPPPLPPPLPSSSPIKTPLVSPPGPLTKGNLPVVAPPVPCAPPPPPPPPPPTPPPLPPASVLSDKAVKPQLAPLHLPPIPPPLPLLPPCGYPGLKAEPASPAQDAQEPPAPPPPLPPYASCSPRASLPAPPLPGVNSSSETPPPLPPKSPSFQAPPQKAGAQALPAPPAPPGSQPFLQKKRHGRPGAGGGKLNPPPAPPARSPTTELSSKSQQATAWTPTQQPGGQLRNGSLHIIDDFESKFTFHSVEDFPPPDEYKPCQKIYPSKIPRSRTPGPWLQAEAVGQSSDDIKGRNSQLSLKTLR
UniProt Q9Y4P8: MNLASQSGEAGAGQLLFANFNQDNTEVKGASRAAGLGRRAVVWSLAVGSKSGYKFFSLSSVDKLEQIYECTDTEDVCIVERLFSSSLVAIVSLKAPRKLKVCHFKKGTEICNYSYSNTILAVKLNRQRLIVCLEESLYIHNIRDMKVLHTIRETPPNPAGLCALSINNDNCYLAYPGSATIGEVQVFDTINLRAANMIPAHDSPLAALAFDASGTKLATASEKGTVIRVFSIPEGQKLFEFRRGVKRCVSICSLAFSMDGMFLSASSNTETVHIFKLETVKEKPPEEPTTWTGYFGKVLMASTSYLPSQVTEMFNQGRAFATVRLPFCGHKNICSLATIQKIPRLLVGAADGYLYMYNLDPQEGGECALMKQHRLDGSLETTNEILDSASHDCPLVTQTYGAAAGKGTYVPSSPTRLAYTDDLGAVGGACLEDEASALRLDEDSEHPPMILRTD
UniProt Q6AWC2, whole entry, looked up: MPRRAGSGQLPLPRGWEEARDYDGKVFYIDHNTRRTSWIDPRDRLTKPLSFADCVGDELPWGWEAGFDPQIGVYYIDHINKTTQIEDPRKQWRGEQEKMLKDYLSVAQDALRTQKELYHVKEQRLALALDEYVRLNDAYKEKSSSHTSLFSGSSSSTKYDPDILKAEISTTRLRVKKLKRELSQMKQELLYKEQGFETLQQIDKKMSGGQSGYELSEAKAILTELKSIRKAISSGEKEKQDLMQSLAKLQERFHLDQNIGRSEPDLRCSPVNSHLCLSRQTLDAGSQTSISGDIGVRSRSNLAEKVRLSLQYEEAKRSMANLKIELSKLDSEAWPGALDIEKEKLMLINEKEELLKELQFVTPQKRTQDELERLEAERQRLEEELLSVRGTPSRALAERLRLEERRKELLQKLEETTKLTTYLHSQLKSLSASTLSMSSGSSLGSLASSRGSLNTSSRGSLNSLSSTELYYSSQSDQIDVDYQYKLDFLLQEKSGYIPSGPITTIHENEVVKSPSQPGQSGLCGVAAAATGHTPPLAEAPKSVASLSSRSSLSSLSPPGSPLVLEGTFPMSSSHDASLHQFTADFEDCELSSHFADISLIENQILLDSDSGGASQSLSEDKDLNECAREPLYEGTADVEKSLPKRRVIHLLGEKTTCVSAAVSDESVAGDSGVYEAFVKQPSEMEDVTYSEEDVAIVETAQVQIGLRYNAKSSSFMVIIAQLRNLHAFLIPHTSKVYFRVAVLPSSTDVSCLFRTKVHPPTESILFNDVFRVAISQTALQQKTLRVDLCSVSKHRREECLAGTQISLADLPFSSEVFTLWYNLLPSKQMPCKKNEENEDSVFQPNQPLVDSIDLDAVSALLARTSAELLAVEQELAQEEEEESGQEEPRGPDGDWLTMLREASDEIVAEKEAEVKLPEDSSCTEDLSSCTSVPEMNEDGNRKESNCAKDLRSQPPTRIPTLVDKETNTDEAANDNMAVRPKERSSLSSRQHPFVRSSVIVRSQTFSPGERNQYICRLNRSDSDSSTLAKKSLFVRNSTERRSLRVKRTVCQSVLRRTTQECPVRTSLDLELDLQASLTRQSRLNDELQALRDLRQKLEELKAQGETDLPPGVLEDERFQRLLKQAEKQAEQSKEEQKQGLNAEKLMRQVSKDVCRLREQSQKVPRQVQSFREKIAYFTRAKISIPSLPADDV
UniProt Q5JSH3: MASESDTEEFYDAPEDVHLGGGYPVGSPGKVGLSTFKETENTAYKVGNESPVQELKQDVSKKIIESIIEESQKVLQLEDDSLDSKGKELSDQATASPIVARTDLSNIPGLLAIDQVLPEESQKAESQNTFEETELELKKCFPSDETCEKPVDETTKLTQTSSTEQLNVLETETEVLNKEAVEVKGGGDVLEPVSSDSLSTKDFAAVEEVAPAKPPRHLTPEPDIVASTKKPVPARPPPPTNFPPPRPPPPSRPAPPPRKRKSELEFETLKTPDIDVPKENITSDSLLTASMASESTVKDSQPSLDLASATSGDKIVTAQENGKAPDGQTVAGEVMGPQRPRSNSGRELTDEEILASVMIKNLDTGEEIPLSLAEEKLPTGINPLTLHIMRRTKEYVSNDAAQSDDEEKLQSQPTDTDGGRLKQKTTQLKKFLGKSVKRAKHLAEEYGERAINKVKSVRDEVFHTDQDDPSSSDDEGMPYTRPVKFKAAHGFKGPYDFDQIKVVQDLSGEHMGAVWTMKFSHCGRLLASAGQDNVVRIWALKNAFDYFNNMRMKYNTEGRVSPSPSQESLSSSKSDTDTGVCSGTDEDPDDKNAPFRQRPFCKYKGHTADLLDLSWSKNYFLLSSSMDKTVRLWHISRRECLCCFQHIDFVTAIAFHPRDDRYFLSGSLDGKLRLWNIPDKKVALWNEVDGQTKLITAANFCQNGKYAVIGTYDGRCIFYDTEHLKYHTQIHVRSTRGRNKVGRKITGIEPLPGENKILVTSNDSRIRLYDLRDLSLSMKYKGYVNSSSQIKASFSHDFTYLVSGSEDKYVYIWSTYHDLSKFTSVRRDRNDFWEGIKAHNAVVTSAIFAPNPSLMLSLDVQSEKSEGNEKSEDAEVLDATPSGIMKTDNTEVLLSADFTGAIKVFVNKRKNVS
UniProt Q9P253: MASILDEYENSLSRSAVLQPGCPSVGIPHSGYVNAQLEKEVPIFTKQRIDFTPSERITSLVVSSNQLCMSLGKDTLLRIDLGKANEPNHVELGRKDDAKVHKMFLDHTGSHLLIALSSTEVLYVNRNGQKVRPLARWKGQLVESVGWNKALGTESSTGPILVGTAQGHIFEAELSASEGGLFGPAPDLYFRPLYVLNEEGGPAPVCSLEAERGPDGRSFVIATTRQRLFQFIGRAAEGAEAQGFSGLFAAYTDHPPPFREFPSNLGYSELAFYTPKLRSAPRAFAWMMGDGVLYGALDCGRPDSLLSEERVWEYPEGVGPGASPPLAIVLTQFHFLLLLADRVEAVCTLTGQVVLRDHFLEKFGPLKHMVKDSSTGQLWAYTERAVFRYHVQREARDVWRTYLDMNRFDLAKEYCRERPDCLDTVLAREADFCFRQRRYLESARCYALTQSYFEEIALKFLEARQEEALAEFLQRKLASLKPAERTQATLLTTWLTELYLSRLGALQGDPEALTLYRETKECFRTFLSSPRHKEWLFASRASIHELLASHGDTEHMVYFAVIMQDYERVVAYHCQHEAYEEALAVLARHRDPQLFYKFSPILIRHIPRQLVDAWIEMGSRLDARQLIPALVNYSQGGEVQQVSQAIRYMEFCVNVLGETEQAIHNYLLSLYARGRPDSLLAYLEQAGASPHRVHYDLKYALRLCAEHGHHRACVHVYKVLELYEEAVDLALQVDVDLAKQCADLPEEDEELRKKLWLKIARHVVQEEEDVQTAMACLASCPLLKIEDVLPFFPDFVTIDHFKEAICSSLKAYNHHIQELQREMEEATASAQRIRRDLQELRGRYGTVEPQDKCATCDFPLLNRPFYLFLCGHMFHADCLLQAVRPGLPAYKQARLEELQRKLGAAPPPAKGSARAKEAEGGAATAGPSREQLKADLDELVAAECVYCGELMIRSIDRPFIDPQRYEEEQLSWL
UniProt A4D1P6: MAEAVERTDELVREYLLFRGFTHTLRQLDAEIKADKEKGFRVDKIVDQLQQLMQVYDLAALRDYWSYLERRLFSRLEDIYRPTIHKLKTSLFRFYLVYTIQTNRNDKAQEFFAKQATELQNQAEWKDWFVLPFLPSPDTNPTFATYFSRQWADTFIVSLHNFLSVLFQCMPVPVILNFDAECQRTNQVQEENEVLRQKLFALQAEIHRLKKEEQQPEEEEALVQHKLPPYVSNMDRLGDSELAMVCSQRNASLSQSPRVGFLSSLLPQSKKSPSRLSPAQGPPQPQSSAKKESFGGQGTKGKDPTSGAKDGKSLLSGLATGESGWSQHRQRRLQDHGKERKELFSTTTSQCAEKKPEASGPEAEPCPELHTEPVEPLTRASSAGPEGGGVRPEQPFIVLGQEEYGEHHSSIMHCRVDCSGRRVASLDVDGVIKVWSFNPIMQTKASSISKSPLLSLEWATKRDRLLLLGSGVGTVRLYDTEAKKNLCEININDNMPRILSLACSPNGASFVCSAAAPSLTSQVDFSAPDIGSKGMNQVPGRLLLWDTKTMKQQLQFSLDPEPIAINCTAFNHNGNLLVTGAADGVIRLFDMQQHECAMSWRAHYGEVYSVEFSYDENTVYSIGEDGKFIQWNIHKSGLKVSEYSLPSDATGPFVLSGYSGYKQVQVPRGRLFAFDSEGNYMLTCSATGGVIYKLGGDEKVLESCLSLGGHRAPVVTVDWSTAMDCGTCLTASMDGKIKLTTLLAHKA

[2] = compound: CCCS(=O)(=O)Nc1ccc(F)c(C(=O)c2c[nH]c3ncc(Cl)cc23)c1F
In short: as §1

[3] = compound: CCN(CCCOc1ccc2c(Nc3cc(CC(=O)Nc4cccc(F)c4)[nH]n3)ncnc2c1)CCOP(=O)(O)O [barasertib]
In short: as §1

[4] = compound: CC[C@@H]1C(=O)N(C)c2cnc(Nc3ccc(C(=O)NC4CCN(C)CC4)cc3OC)nc2N1C1CCCC1
In short: as §1

[5] = compound: CC[C@@H]1C(=O)N(C)c2cnc(Nc3ccc(C(=O)N[C@H]4CC[C@H](N5CCN(CC6CC6)CC5)CC4)cc3OC)nc2N1C(C)C [volasertib]
In short: as §1

[6] = compound: CCn1c(C(=O)N(C2CC2)C2CC2)cc2c3c(ncn3C)c(Nc3cc(C)n(C)n3)nc21
In short: as §1

[7] = compound: CCn1cc(-c2ccnc3[nH]c(-c4cccc(CN(C)C)c4)cc23)c(-c2ccc(NC(=O)N(C)C)cc2)n1
In short: as §1

[8] = compound: CN1CCC(CNc2ccc3ncc(-c4cccc(OC(F)(F)F)c4)n3n2)CC1
In short: as §1

[9] = compound: CN1CCN(CCOc2cc(OC3CCOCC3)c3c(Nc4c(Cl)ccc5c4OCO5)ncnc3c2)CC1 [saracatinib]
In short: as §1

[10] = compound: CN1CCN(c2nc(C3=C(c4c[nH]c5ccccc45)C(=O)NC3=O)c3ccccc3n2)CC1 [sotrastaurin]
In short: as §1

[11] = compound: CN1CC[C@H](c2c(O)cc(O)c3c(=O)cc(-c4ccccc4Cl)oc23)[C@H](O)C1 [alvocidib]
In short: as §1

[12] = compound: CN1CCc2c(c3ccccc3n2Cc2ccc(C(=O)NO)cc2)C1 [Tubastatin A]
In short: as §1

[13] = compound: CNC(=O)C1=CC=CC=C1NC2=NC(=NC=C2Cl)NC3=C(C=C(C=C3)N4CCOCC4)OC
In short: as §1

[14] = compound: CNC(=O)c1ccc(Nc2ncc(C(F)(F)F)c(NCc3nccnc3N(C)S(C)(=O)=O)n2)cc1 [defactinib]
In short: as §1

[15] = compound: CNc1nc(-c2ccc3c(N)n[nH]c3c2)cc(N2C[C@@H](C(=O)NC3CCCCC3)CC[C@H]2C)n1
In short: as §1

[16] = compound: COC(=O)N[C@@H](C)CNc1nccc(-c2cn(C(C)C)nc2-c2cc(Cl)cc(NS(C)(=O)=O)c2F)n1 [encorafenib]
In short: as §1

[17] = compound: COC(=O)[C@H](CCSC)NC(=O)C1=C(C=C(C=C1)NC[C@H](CS)N)C2=CC=CC=C2
In short: as §1

[18] = compound: COc1cc(Nc2ncc3c(n2)-c2ccc(Cl)cc2C(c2c(F)cccc2OC)=NC3)ccc1C(=O)O [alisertib]
In short: as §1

[19] = compound: COc1cc2nc(-c3cc(F)ccc3O)nc(N[C@@H]3CNC[C@H]3C(C)(C)O)c2cc1OC
In short: as §1

[20] = compound: COc1cc2ncnc(Nc3ccc(F)c(Cl)c3)c2cc1OCCCN1CCOCC1 [gefitinib]
In short: as §1

Measured: log2 fold change

WTAP (UniProt Q15007)
inactive: [1] -0.034 | [2] 0.017 | [3] 0.042 | [4] -0.071 | [5] -0.054 | [6] -0.023 | [7] -0.041 | [8] 0.016 | [9] -0.013 | [10] 0.022 | [11] 0.01 | [12] -0.076 | [13] 0.058 | [14] -0.004 | [15] 0.065 | [16] 0.025 | [17] -0.014 | [18] -0.033 | [19] 0.04 | [20] -0.037

WDR11 (UniProt Q9BZH6)
inactive: [1] 0.074 | [2] -0.003 | [3] 0.008 | [4] -0.054 | [5] 0 | [6] -0.026 | [7] -0.286 | [8] 0.104 | [9] 0.005 | [10] 0 | [11] -0.1 | [12] 0.018 | [13] -0.018 | [14] -0.13 | [15] 0.002 | [16] 0.047 | [17] 0.012 | [18] 0.079 | [19] 0.012 | [20] 0.109

WIPF3 (UniProt A6NGB9)
inactive: [1] -0.067 | [2] 0.006 | [3] -0.006 | [4] 0.126 | [5] 0.025 | [6] -0.029 | [7] 0.009 | [8] 0.016 | [9] 0.027 | [10] -0.005 | [11] -0.067 | [12] 0.034 | [13] 0.024 | [14] 0.054 | [15] 0.075 | [16] -0.017 | [17] -0.064 | [18] -0.003 | [19] 0.017 | [20] 0.028

WIPI2 (UniProt Q9Y4P8)
inactive: [1] -0.028 | [2] 0.012 | [3] -0.06 | [4] -0.073 | [5] -0.022 | [6] 0.002 | [7] -0.108 | [8] 0.09 | [9] 0.01 | [10] -0.002 | [11] -0.036 | [12] 0.005 | [13] -0.007 | [14] 0.036 | [15] -0.051 | [16] 0.029 | [17] 0.049 | [18] -0.033 | [19] -0.012 | [20] -0.027

WWC2 isoform 6 (UniProt Q6AWC2)
inactive: [1] -0.024 | [2] -0.035 | [3] 0.002 | [4] -0.168 | [5] -0.065 | [6] 0.033 | [7] 0.049 | [8] -0.026 | [9] -0.014 | [10] 0.022 | [11] -0.052 | [12] -0.072 | [13] 0.061 | [14] 0.004 | [15] -0.01 | [16] -0.027 | [17] 0.076 | [18] -0.045 | [19] -0.074 | [20] 0.025

WDR44 (UniProt Q5JSH3)
inactive: [1] 0.01 | [2] -0.007 | [3] 0.01 | [4] 0.027 | [5] 0.01 | [6] -0.031 | [7] -0.035 | [8] 0.062 | [9] 0.011 | [10] 0.006 | [11] -0.02 | [12] 0.047 | [13] 0.01 | [14] -0.013 | [15] 0.021 | [16] -0.001 | [17] -0.009 | [18] 0.004 | [19] 0.004 | [20] 0.011

VPS18 (UniProt Q9P253)
inactive: [1] 0.037 | [2] 0.014 | [3] 0 | [4] 0 | [5] -0.083 | [6] 0.046 | [7] -0.048 | [8] -0.04 | [9] -0.012 | [10] 0.02 | [11] -0.016 | [12] -0.106 | [13] 0.011 | [14] -0.057 | [15] -0.008 | [16] 0.019 | [17] -0.125 | [18] 0.005 | [19] -0.006 | [20] 0.006

2 successive records out of the list so far, for reference:
WIPF3 (UniProt A6NGB9)
inactive: [1] -0.067 | [2] 0.006 | [3] -0.006 | [4] 0.126 | [5] 0.025 | [6] -0.029 | [7] 0.009 | [8] 0.016 | [9] 0.027 | [10] -0.005 | [11] -0.067 | [12] 0.034 | [13] 0.024 | [14] 0.054 | [15] 0.075 | [16] -0.017 | [17] -0.064 | [18] -0.003 | [19] 0.017 | [20] 0.028

WIPI2 (UniProt Q9Y4P8)
inactive: [1] -0.028 | [2] 0.012 | [3] -0.06 | [4] -0.073 | [5] -0.022 | [6] 0.002 | [7] -0.108 | [8] 0.09 | [9] 0.01 | [10] -0.002 | [11] -0.036 | [12] 0.005 | [13] -0.007 | [14] 0.036 | [15] -0.051 | [16] 0.029 | [17] 0.049 | [18] -0.033 | [19] -0.012 | [20] -0.027

Continued.

WDR91 (UniProt A4D1P6)
inactive: [1] -0.096 | [2] 0.028 | [3] 0.046 | [4] -0.043 | [5] -0.023 | [6] 0.055 | [7] -0.01 | [8] 0.041 | [9] 0.067 | [10] 0.019 | [11] -0.018 | [12] -0.097 | [13] 0.017 | [14] -0.003 | [15] -0.056 | [16] 0.026 | [17] 0.1 | [18] 0.013 | [19] -0.007 | [20] -0.004

WDR46, A0A0G2JJL1
inactive: [1] -0.144 | [2] 0.031 | [3] -0.013 | [5] 0.074 | [6] -0.011 | [7] -0.012 | [8] 0.031 | [9] 0.106 | [11] 0.13 | [12] 0.119 | [14] 0.073 | [15] 0.048 | [18] -0.093 | [19] -0.044 | [20] 0.212
